PubChem BioAssay AID1259308 | NCATS – 2017

Assay: 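Knock-downs that increase output of a recombinant reporter protein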 (primary screen)
Cell system: human HEK293 embryonic kidney cells stably expressing firefly luciferase (HEK-CMV-Luc2-Hygro)
Reagent: single siRNA against human genes, 0.8 pmol siRNA per well
Duration: 72 h
Measurement: 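Reporter luminescence and viable-cell signal on separate replicate plates, given as percent of non-targeting control and median/MAD z-scores, plus per-cell luciferase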
Reading the numbers: total luciferase, z-score: higher = more reporter protein produced
Rule for the call: 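Active when the median/MAD z-score for overall luciferase is greater than 3; a gene was taken forward for validation with new siRNAs if at least two of its three siRNAs passed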
Meaning of the calls: active = raised luciferase; inactive = no rise
Shown is one part, drawn at random, of about 59,000 deposited reagents. Over the whole deposit, about 1,510 (2.6%) were called active. 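Calls use total luciferase alone and ignore viability, so some active siRNAs may act by altering cell number.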 Reagents against one gene are numbered here. Not all columns of the deposit are shown. Reagent sequences are not shown.

total luciferase, z-score, by target gene and reagent
CRK: #1 -0.733 inactive; #2 0.0693 inactive; #3 0.585 inactive
DNAJB3P: #1 -0.22 inactive; #2 0.105 inactive; #3 -1.71 inactive
COBLP1: #1 -0.571 inactive; #2 -0.517 inactive; #3 -0.787 inactive
ZNF14: #1 0.133 inactive; #2 -0.677 inactive; #3 1.3 inactive
LINC00518: #1 -1.57 inactive; #2 1.35 inactive; #3 0.558 inactive
NECTIN3: #1 -0.468 inactive; #2 -0.839 inactive; #3 0.875 inactive
CNBD1: #1 0.804 inactive; #2 0.562 inactive; #3 2.53 inactive
EVPLL: #1 -0.968 inactive; #2 0.967 inactive; #3 -1.18 inactive
RNMT: #1 0.388 inactive; #2 0.394 inactive; #3 0.775 inactive
SYTL2: #1 0.148 inactive; #2 -1.02 inactive; #3 0.581 inactive
COX6A1: #1 0.524 inactive; #2 1.37 inactive; #3 0.488 inactive
ATF5: #1 0.242 inactive; #2 0.604 inactive; #3 -0.596 inactive
MYO1A: #1 -1.31 inactive; #2 -0.263 inactive; #3 -0.674 inactive

3 successive entries already listed, for reference:
total luciferase, z-score, by target gene and reagent
DNAJB3P: #1 -0.22 inactive; #2 0.105 inactive; #3 -1.71 inactive
